Where “and” joins values, the source holds several entries; their conditions need not be identical. Equal values may be shown once. Some of these results come from one statement about several compounds together. For at least one compound, name, drawing or mass did not settle the structure.
Tested on: ACVR1^Q207D (CAG-Z-EGFP-caALK2) transgenic mice
Assay: Inducible ACVR1^Q207D-Tg (CAG-Z-EGFP-caALK2) mouse model of heterotopic ossification / FOP
Conditions: 6 mg/kg intraperitoneally twice daily

c1cc(-c2cnn3cc(-c4ccc(N5CCNCC5)cc4)cnc23)c2cccnc2c1 [LDN-212854]
weight loss relative to vehicle-treated controls: 10-25% and 10%-25%

— patent US10583143B2, “Methods and compositions for the treatment or prevention of abnormal bone formation in a soft tissue” (THE BRIGHAM AND WOMEN'S HOSPITAL, INC., priority 2015, dated 2020)
